These results are taken from publication PMC6679365.

Results are given in words; binding and its absence hold for the method and conditions named. Binding calls can cover weak binding; strength is not graded here.

The target in this test is CsFT, yeast two-hybrid fusion (cucumber (Cucumis sativus L.)) (UniProt B9ZYL0). Briefly: two-hybrid; pairwise tests; full-length coding sequences in pGADT7 (prey) or pGBKT7 (bait), yeast strain AH109, Matchmaker GAL4 Two-Hybrid System 3.

For “CsNOT2a (cucumber homolog of Negative on TATA less2), yeast two-hybrid fusion (from UniProt A0A0A0KG20)”, the binding result is given as “binds”.
